The source gives many values for each of these; only a part stands here.
System: 867 cancer cell lines
Assay: PRISM assay (barcoded cell line screening, 5 days);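 also: top test concentration 10 mM in eight-point dilution series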
Assay type: cell-based
Design: scale not given here
Protocol: The principle of the PRISM assay has been described elsewhere and was conducted as previously outlined by the PRISM team at the Broad Institute.^[ [14], [31] ^] In PRISM (MTS027) experiments, KG‐FP‐003 was tested across 867 different cancer cell lines. Cells were treated with eight concentration gradients, ranging from 4.6 nM to […], in triplicate dilutions over a period of five days. Each plate was treated with 20 µM bortezomib as a positive control and DMSO as a negative control. Three replicate experiments were performed for each compound. The resulting data were analyzed using GraphPad PRISM 9.5.

SMILES: CNC(=O)c1cc2c(c(F)c1-c1c(Cl)c(F)cc3c1C[C@@](CN[C@H]1CC[C@H](C(=O)N4CCC(CC5CCN(C(=O)COc6ccc(N7CCC(=O)NC7=O)c(C)c6)CC5)CC4)CC1)(c1ccccc1)O3)[C@@H](O)[C@@H](C)C2 [KG-FP-003]
- KG-FP-003-AUC (T24_URINARY_TRACT, ACH-000018, PR500): 0.89
- KG-FP-003-AUC (T47D_BREAST, ACH-000147, PR500): 0.99
- KG-FP-003-AUC (T84_LARGE_INTESTINE, ACH-000381, PR300): 0.98
- KG-FP-003-AUC (T98G_CENTRAL_NERVOUS_SYSTEM, ACH-000571, PR500): 0.83
- KG-FP-003-AUC (TALL1_HAEMATOPOIETIC_AND_LYMPHOID_TISSUE, ACH-000197, PR300): 0.77
- KG-FP-003-AUC (TANOUE_HAEMATOPOIETIC_AND_LYMPHOID_TISSUE, ACH-001669, PR300): 0.77
- KG-FP-003-AUC (TASK1_CENTRAL_NERVOUS_SYSTEM, ACH-001670, PR300): 0.99
- KG-FP-003-AUC (TC32_BONE, ACH-001205, PR300): 0.86
- KG-FP-003-AUC (TC106_BONE, ACH-001283, PR300): 0.98
- KG-FP-003-AUC (TC205_BONE, ACH-001431, PR300): 1.00
- KG-FP-003-AUC (TCCPAN2_PANCREAS, ACH-000502, PR500): 1.00
- KG-FP-003-AUC (TCCSUP_URINARY_TRACT, ACH-000720, PR500): 0.84
- KG-FP-003-AUC (TE1_OESOPHAGUS, ACH-000647, PR500): 0.91
- KG-FP-003-AUC (TE5_OESOPHAGUS, ACH-000408, PR500): 0.98
- KG-FP-003-AUC (TE6_OESOPHAGUS, ACH-000605, PR500): 0.77
- KG-FP-003-AUC (TE8_OESOPHAGUS, ACH-000452, PR500): 0.86
- KG-FP-003-AUC (TE9_OESOPHAGUS, ACH-000694, PR500): 0.99
- KG-FP-003-AUC (TE10_OESOPHAGUS, ACH-000318, PR500): 0.98
- KG-FP-003-AUC (TE11_OESOPHAGUS, ACH-000488, PR500): 0.88
- KG-FP-003-AUC (TE14_OESOPHAGUS, ACH-000726, PR500): 0.85
- KG-FP-003-AUC (TE15_OESOPHAGUS, ACH-000353, PR300): 0.73
- KG-FP-003-AUC (TE617T_SOFT_TISSUE, ACH-000051, PR300): 0.28
- KG-FP-003-AUC (TEN_ENDOMETRIUM, ACH-000397, PR500): 0.78
- KG-FP-003-AUC (TF1_HAEMATOPOIETIC_AND_LYMPHOID_TISSUE, ACH-000387, PR300): 1.00
- KG-FP-003-AUC (TFK1_BILIARY_TRACT, ACH-001673, PR300): 0.92
- KG-FP-003-AUC (TGBC1TKB_BILIARY_TRACT, ACH-001861, PR300): 0.78
- KG-FP-003-AUC (TGBC18TKB_LARGE_INTESTINE, ACH-002023, PR300): 0.91
- KG-FP-003-AUC (TGBC52TKB_BILIARY_TRACT, ACH-001862, PR300): 0.84
- KG-FP-003-AUC (TGW_AUTONOMIC_GANGLIA, ACH-001674, PR300): 0.99
- KG-FP-003-AUC (THP1_HAEMATOPOIETIC_AND_LYMPHOID_TISSUE, ACH-000146, PR300): 0.90
- KG-FP-003-AUC (TM31_CENTRAL_NERVOUS_SYSTEM, ACH-000592, PR500): 0.93
- KG-FP-003-AUC (TM87_SOFT_TISSUE, ACH-000172, PR300): 0.40
- KG-FP-003-AUC (TM87_SOFT_TISSUE, ACH-000172, PR500): 0.48
- KG-FP-003-AUC (TOV21G_OVARY, ACH-000885, PR500): 0.54
- KG-FP-003-AUC (TOV112D_OVARY, ACH-000048, PR500): 0.98
- KG-FP-003-AUC (TT1TKB_LARGE_INTESTINE, ACH-002025, PR300): 1.00
- KG-FP-003-AUC (TT2609C02_THYROID, ACH-000716, PR500): 0.91
- KG-FP-003-AUC (TTC442_SOFT_TISSUE, ACH-001750, PR300): 0.25
- KG-FP-003-AUC (TTC549_SOFT_TISSUE, ACH-001211, PR300): 0.85
- KG-FP-003-AUC (TTC642_SOFT_TISSUE, ACH-001212, PR300): 0.99
- KG-FP-003-AUC (TTC709_SOFT_TISSUE, ACH-000597, PR300): 0.43
- KG-FP-003-AUC (TTC1240_SOFT_TISSUE, ACH-001210, PR300): 0.92
- KG-FP-003-AUC (TT_OESOPHAGUS, ACH-000561, PR500): 0.99
- KG-FP-003-AUC (TT_THYROID, ACH-001321, PR500): 0.97
- KG-FP-003-AUC (TUHR4TKB_KIDNEY, ACH-000495, PR500): 0.72
- KG-FP-003-AUC (TYKNU_OVARY, ACH-000430, PR300): 0.88
- KG-FP-003-AUC (U2OS_BONE, ACH-000364, PR300): 0.65
- KG-FP-003-AUC (U2OS_BONE, ACH-000364, PR500): 0.79
- KG-FP-003-AUC (U87MG_CENTRAL_NERVOUS_SYSTEM, ACH-000075, PR300): 0.85
- KG-FP-003-AUC (U118MG_CENTRAL_NERVOUS_SYSTEM, ACH-000040, PR500): 0.93
- KG-FP-003-AUC (U178_CENTRAL_NERVOUS_SYSTEM, ACH-000208, PR300): 0.72
- KG-FP-003-AUC (U251MG_CENTRAL_NERVOUS_SYSTEM, ACH-000232, PR500): 0.73
- KG-FP-003-AUC (U266B1_HAEMATOPOIETIC_AND_LYMPHOID_TISSUE, ACH-000626, PR300): 0.83
- KG-FP-003-AUC (U343_CENTRAL_NERVOUS_SYSTEM, ACH-000036, PR300): 0.62
- KG-FP-003-AUC (U2904_HAEMATOPOIETIC_AND_LYMPHOID_TISSUE, ACH-001677, PR300): 0.88
- KG-FP-003-AUC (U2940_HAEMATOPOIETIC_AND_LYMPHOID_TISSUE, ACH-001678, PR300): 0.75
- KG-FP-003-AUC (U2973_HAEMATOPOIETIC_AND_LYMPHOID_TISSUE, ACH-001679, PR300): 0.95
- KG-FP-003-AUC (UACC62_SKIN, ACH-000425, PR500): 0.90
- KG-FP-003-AUC (UACC257_SKIN, ACH-000579, PR500): 0.99
- KG-FP-003-AUC (UBLC1_URINARY_TRACT, ACH-000741, PR500): 0.75
- KG-FP-003-AUC (UMRC3_KIDNEY, ACH-001687, PR300): 0.88
- KG-FP-003-AUC (UMRC7_KIDNEY, ACH-001688, PR300): 0.77
- KG-FP-003-AUC (UMUC1_URINARY_TRACT, ACH-000834, PR500): 0.79
- KG-FP-003-AUC (UMUC5_URINARY_TRACT, ACH-001411, PR300): 0.89
- KG-FP-003-AUC (UMUC6_URINARY_TRACT, ACH-001414, PR300): 0.68
- KG-FP-003-AUC (UMUC7_URINARY_TRACT, ACH-001415, PR300): 0.50
- KG-FP-003-AUC (UMUC10_URINARY_TRACT, ACH-001412, PR300): 0.78
- KG-FP-003-AUC (UMUC11_URINARY_TRACT, ACH-001413, PR300): 0.75
- KG-FP-003-AUC (UMUC13_URINARY_TRACT, ACH-001407, PR300): 0.52
- KG-FP-003-AUC (UO31_KIDNEY, ACH-000428, PR500): 0.73
- KG-FP-003-AUC (UPCISCC072_UPPER_AERODIGESTIVE_TRACT, ACH-001693, PR300): 0.46
- KG-FP-003-AUC (UPCISCC111_UPPER_AERODIGESTIVE_TRACT, ACH-001696, PR300): 0.72
- KG-FP-003-AUC (UPCISCC116_UPPER_AERODIGESTIVE_TRACT, ACH-001698, PR300): 0.86
- KG-FP-003-AUC (UW228_CENTRAL_NERVOUS_SYSTEM, ACH-001232, PR300): 0.74
- KG-FP-003-AUC (VAESBJ_SOFT_TISSUE, ACH-001702, PR300): 0.90
- KG-FP-003-AUC (VAL_HAEMATOPOIETIC_AND_LYMPHOID_TISSUE, ACH-001703, PR300): 0.77
- KG-FP-003-AUC (VMCUB1_URINARY_TRACT, ACH-000545, PR500): 0.70
- KG-FP-003-AUC (VMRCRCW_KIDNEY, ACH-000484, PR500): 0.95
- KG-FP-003-AUC (VMRCRCZ_KIDNEY, ACH-000171, PR500): 0.91
- KG-FP-003-AUC (WAOSEL_HAEMATOPOIETIC_AND_LYMPHOID_TISSUE, ACH-001707, PR300): 0.89
- KG-FP-003-AUC (WERIRB1_AUTONOMIC_GANGLIA, ACH-001421, PR300): 0.99
- KG-FP-003-AUC (WM88_SKIN, ACH-000899, PR500): 1.00
- KG-FP-003-AUC (WM793_SKIN, ACH-000827, PR500): 0.73
- KG-FP-003-AUC (WM983B_SKIN, ACH-000765, PR500): 0.93
- KG-FP-003-AUC (WM1799_SKIN, ACH-000661, PR500): 0.84
- KG-FP-003-AUC (WM2664_SKIN, ACH-001239, PR500): 1.00
- KG-FP-003-AUC (WSUDLCL2_HAEMATOPOIETIC_AND_LYMPHOID_TISSUE, ACH-000534, PR300): 0.76
- KG-FP-003-AUC (YAPC_PANCREAS, ACH-000332, PR500): 0.90
- KG-FP-003-AUC (YD8_UPPER_AERODIGESTIVE_TRACT, ACH-000630, PR500): 0.43
- KG-FP-003-AUC (YD10B_UPPER_AERODIGESTIVE_TRACT, ACH-000723, PR500): 0.72
- KG-FP-003-AUC (YD15_SALIVARY_GLAND, ACH-000836, PR500): 0.55
- KG-FP-003-AUC (YD38_UPPER_AERODIGESTIVE_TRACT, ACH-000762, PR500): 0.86
- KG-FP-003-AUC (YH13_CENTRAL_NERVOUS_SYSTEM, ACH-000469, PR500): 0.73
- KG-FP-003-AUC (YKG1_CENTRAL_NERVOUS_SYSTEM, ACH-000570, PR500): 0.47
- KG-FP-003-AUC (YSCCC_BILIARY_TRACT, ACH-001864, PR300): 1.00
- KG-FP-003-AUC (ZR751_BREAST, ACH-000097, PR500): 0.75

— article PMC12752627, “Discovery of a Potent and Selective TEAD Degrader with Durable Degradation Activity” (Advanced Science, 2025)
